Laboratory results published in the supplement of paper PMC10849652.
The list shows a part of the results.

Amino acid sequences for entries named in this document (tags omitted). A change or cut given only in a name is not applied to a line headed by its entry.
UniProt Q9UHY8: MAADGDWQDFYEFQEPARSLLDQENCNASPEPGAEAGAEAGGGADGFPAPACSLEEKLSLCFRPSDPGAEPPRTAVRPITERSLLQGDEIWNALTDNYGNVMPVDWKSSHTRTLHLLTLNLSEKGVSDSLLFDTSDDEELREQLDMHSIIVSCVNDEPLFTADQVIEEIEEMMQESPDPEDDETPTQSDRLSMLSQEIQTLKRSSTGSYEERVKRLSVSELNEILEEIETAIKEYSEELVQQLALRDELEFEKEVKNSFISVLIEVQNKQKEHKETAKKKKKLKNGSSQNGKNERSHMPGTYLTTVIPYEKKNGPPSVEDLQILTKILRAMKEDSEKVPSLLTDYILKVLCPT
UniProt Q7Z6M2: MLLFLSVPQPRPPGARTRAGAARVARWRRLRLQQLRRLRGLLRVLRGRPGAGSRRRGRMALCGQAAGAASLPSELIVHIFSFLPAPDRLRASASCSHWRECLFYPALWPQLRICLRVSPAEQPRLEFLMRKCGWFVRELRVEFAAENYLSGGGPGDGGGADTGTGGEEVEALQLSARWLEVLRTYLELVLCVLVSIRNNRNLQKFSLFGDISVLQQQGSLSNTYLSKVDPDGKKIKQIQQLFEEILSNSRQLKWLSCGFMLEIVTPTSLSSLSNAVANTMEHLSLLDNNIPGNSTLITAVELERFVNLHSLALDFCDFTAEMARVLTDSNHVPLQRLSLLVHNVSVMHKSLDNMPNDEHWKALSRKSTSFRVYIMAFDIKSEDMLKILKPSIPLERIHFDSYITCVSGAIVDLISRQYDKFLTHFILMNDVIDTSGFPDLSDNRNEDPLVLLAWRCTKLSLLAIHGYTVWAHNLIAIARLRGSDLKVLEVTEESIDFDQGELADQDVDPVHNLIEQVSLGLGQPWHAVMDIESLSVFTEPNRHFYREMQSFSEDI
UniProt Q14314: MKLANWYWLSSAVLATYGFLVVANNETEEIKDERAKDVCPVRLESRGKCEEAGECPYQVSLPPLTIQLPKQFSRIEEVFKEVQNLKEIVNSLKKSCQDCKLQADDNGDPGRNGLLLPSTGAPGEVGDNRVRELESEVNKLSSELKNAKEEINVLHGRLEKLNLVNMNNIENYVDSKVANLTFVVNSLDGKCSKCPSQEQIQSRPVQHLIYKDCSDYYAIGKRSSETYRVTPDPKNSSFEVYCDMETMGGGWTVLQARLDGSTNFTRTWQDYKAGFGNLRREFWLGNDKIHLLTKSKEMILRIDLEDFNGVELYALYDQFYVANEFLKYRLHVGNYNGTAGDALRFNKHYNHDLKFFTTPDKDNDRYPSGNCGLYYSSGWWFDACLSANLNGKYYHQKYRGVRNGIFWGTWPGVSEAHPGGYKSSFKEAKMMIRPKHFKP
UniProt B1AJZ9: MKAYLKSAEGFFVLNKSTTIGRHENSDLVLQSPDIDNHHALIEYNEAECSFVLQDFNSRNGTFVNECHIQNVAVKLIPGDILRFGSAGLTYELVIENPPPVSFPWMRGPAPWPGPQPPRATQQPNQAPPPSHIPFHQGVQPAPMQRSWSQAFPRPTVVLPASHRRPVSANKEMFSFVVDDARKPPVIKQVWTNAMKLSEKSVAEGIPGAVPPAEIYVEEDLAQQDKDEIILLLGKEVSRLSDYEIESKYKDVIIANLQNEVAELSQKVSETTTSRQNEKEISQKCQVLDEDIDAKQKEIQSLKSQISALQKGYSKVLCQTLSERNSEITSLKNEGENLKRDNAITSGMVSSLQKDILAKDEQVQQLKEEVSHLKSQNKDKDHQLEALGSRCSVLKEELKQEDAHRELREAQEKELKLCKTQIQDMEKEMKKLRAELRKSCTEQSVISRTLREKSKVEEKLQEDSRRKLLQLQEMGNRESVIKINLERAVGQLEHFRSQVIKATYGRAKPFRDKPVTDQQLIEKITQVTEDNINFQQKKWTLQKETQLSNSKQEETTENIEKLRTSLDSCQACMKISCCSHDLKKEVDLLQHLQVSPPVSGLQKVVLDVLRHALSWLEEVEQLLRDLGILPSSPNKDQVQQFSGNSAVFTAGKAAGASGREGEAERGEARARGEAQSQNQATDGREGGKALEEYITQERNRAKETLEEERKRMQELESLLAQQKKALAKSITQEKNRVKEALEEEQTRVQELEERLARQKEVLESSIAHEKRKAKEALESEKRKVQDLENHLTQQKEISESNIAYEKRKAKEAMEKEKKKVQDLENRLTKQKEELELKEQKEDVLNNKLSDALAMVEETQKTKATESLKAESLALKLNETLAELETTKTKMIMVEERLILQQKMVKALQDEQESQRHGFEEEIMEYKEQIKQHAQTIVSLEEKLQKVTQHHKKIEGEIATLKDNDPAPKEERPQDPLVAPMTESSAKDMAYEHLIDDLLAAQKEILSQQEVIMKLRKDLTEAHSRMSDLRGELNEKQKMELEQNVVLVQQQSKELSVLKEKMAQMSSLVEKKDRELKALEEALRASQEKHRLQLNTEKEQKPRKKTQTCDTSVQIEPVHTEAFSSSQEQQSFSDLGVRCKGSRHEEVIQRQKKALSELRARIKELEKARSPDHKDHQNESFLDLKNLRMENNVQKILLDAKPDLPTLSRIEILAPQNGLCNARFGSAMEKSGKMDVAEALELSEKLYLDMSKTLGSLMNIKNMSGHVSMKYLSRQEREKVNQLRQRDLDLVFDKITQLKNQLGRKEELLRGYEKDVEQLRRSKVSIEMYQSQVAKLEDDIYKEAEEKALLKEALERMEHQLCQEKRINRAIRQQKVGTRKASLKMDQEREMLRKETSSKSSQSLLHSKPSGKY
UniProt Q86UY5: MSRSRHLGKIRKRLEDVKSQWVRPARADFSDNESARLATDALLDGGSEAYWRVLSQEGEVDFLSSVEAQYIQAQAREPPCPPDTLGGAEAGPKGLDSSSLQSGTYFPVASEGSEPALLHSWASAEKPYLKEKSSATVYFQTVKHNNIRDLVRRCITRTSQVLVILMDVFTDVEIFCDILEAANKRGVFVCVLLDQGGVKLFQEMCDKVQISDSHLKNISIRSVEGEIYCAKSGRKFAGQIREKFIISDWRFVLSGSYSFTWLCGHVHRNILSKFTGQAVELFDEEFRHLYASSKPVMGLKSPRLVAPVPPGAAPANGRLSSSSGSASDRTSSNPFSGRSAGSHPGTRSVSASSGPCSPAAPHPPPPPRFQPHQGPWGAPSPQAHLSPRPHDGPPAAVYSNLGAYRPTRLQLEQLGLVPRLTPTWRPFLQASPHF
UniProt Q8NFG4: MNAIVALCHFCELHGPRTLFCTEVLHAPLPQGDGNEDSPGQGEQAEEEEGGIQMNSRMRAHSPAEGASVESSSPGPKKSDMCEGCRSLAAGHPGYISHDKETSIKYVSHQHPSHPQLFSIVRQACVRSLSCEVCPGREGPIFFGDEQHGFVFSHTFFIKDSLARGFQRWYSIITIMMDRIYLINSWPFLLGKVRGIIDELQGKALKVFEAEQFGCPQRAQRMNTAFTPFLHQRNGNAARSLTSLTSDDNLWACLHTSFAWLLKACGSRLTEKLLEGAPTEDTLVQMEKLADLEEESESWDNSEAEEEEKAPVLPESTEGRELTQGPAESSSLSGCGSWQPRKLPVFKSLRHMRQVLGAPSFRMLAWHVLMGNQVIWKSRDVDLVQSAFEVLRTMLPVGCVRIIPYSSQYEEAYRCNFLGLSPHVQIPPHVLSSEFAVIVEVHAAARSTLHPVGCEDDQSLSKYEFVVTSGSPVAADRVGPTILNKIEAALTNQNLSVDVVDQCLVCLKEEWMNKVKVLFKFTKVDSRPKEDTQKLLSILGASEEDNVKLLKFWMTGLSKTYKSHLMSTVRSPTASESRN
UniProt Q8TF40: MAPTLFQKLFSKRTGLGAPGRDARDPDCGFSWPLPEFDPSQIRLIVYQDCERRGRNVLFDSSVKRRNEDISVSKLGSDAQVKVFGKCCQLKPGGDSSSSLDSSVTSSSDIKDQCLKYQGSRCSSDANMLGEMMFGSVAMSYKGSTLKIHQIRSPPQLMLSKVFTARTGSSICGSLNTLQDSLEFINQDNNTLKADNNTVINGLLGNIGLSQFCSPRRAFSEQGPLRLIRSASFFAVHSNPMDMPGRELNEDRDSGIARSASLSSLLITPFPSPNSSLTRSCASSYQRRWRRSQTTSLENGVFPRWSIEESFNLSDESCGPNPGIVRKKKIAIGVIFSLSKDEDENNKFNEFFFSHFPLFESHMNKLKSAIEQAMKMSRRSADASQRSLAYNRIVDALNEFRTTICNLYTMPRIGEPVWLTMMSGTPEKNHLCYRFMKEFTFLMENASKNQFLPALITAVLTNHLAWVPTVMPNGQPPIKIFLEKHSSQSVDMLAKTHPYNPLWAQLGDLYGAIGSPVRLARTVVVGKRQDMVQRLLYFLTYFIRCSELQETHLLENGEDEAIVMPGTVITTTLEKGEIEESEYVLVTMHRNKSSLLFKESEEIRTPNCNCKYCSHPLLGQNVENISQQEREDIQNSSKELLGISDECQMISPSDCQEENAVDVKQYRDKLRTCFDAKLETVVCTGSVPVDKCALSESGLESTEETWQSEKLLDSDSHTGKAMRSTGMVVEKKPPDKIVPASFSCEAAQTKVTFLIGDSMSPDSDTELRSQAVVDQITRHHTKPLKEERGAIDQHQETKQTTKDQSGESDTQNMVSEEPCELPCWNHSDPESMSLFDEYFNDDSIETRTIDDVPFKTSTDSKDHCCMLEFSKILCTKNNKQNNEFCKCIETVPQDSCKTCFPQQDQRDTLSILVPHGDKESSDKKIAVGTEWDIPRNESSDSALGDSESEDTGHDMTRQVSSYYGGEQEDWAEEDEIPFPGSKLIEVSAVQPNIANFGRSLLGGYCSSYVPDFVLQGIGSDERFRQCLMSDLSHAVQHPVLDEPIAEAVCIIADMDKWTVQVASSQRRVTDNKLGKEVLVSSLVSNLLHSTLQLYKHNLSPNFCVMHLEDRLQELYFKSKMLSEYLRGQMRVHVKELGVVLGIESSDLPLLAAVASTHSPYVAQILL
UniProt Q9UK22: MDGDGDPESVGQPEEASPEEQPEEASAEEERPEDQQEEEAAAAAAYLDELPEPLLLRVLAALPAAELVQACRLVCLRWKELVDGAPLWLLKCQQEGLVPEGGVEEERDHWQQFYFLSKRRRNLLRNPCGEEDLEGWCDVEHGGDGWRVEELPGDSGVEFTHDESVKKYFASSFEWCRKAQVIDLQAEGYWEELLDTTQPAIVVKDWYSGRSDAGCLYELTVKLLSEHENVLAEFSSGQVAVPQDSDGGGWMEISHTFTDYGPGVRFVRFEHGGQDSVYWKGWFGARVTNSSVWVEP
UniProt Q96C11: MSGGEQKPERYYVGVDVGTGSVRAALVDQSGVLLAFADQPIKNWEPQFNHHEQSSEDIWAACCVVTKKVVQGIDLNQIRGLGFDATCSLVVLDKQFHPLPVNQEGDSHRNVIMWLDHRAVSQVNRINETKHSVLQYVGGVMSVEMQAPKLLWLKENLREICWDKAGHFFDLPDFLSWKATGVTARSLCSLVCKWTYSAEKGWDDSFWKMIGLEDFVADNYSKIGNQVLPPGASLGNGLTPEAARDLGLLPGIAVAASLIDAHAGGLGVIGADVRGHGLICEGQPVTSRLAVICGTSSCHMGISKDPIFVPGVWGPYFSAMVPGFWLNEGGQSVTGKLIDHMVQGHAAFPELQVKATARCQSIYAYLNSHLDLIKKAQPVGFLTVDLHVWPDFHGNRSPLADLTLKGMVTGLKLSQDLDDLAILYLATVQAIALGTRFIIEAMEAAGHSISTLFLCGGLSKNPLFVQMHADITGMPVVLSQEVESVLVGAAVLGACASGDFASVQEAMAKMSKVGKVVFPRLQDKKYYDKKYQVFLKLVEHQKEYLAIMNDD
UniProt Q13642: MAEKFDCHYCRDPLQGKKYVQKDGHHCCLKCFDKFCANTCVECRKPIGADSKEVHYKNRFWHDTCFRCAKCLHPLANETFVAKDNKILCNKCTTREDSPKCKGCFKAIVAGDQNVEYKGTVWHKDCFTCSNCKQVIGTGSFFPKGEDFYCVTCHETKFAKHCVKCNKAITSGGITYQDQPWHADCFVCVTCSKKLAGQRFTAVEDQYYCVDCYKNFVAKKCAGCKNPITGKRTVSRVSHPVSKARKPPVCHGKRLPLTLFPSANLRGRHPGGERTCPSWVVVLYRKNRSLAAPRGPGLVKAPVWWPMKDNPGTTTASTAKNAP
UniProt Q9UKT8: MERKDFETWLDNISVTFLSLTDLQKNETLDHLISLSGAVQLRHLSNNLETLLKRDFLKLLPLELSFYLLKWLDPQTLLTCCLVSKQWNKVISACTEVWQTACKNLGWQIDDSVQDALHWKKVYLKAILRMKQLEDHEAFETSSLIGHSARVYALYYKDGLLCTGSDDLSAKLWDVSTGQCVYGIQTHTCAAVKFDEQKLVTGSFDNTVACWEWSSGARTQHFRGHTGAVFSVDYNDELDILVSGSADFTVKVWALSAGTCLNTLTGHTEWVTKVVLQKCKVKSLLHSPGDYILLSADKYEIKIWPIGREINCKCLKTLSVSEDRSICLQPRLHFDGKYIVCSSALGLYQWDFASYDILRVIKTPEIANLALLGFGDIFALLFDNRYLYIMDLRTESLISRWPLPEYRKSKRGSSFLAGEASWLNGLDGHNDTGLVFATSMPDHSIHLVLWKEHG

Experiments:
Test in all cases: log2 fold change, soluble protein after heating vs DMSO (PISA); higher = thermal stabilisation; K562 cells, 10 uM, 30 min; active = over 0.2 and 3.5 SD of the protein, either way, in both replicates (recomputed)
volasertib = compound: CC[C@@H]1C(=O)N(C)c2cnc(Nc3ccc(C(=O)N[C@H]4CC[C@H](N5CCN(CC6CC6)CC5)CC4)cc3OC)nc2N1C(C)C [volasertib]
In short: (§1)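 Soluble protein was defined as the supernatant after 21,000xg for 90 min. It came from K562 cells at 2×10^6 cells/mL given 10 μM compound for 30 min, heated in aliquots for 3 min across 48°C-58°C, pooled, and extracted in PBS with 0.5% NP-40 at 4°C, and was quantified by TMTpro 16plex LC-MS/MS with equalised channel sums. Thermal stability against control samples, from duplicates, is reported as log2 fold change.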

[1] = compound: CC[C@H](C)N1C=C(C2=C(C=C(C=C21)C3=CN=C(C=C3)N4CCNCC4)C(=O)NCC5=C(C=C(NC5=O)C)C)C
In short: as §1

[2] = compound: CCn1cc(-c2ccnc3[nH]c(-c4cccc(CN(C)C)c4)cc23)c(-c2ccc(NC(=O)N(C)C)cc2)n1
In short: as §1

[3] = compound: CN(C)CC(=O)Nc1ccc2[nH]c(=O)c3ccccc3c2c1
In short: as §1

rosiglitazone = compound: CN(CCOC1=CC=C(C=C1)C[C@H]2C(=O)NC(=O)S2)C3=CC=CC=N3 (racemic) [rosiglitazone]
In short: as §1

[4] = compound: CN1C2=C(C3=C1C(=O)N(N=C3)CC4=CC(=CC=C4)N)SC(=C2)S(=O)C
In short: as §1

[5] = compound: CN1CCC(CNc2ccc3ncc(-c4cccc(OC(F)(F)F)c4)n3n2)CC1
In short: as §1

saracatinib = compound: CN1CCN(CCOc2cc(OC3CCOCC3)c3c(Nc4c(Cl)ccc5c4OCO5)ncnc3c2)CC1 [saracatinib]
In short: as §1

sotrastaurin = compound: CN1CCN(c2nc(C3=C(c4c[nH]c5ccccc45)C(=O)NC3=O)c3ccccc3n2)CC1 [sotrastaurin]
In short: as §1

alvocidib = compound: CN1CC[C@H](c2c(O)cc(O)c3c(=O)cc(-c4ccccc4Cl)oc23)[C@H](O)C1 [alvocidib]
In short: as §1

defactinib = compound: CNC(=O)c1ccc(Nc2ncc(C(F)(F)F)c(NCc3nccnc3N(C)S(C)(=O)=O)n2)cc1 [defactinib]
In short: as §1

[6] = compound: CNc1nc(-c2ccc3c(N)n[nH]c3c2)cc(N2C[C@@H](C(=O)NC3CCCCC3)CC[C@H]2C)n1
In short: as §1

[7] = compound: COC(=O)[C@H](CCSC)NC(=O)C1=C(C=C(C=C1)NC[C@H](CS)N)C2=CC=CC=C2
In short: as §1

epoxomicin = compound: CC[C@H](C)[C@@H](C(=O)N[C@@H]([C@@H](C)O)C(=O)N[C@@H](CC(C)C)C(=O)[C@]1(CO1)C)NC(=O)[C@H]([C@@H](C)CC)N(C)C(=O)C [epoxomicin]
In short: as §1

[8] = compound: CCn1c(C(=O)N(C2CC2)C2CC2)cc2c3c(ncn3C)c(Nc3cc(C)n(C)n3)nc21
In short: as §1

Tubastatin A = compound: CN1CCc2c(c3ccccc3n2Cc2ccc(C(=O)NO)cc2)C1 [Tubastatin A]
In short: as §1

[9] = compound: CNC(=O)C1=CC=CC=C1NC2=NC(=NC=C2Cl)NC3=C(C=C(C=C3)N4CCOCC4)OC
In short: as §1

Measured: log2 fold change

FEZ2 isoform 2 (UniProt Q9UHY8)
inactive: volasertib 0.007 | [1] -0.019 | [2] 0.002 | [3] 0.041 | rosiglitazone 0.227 | [4] -0.007 | [5] 0.043 | saracatinib 0.095 | sotrastaurin -0.168 | alvocidib -0.045 | defactinib -0.074 | [6] -0.253 | [7] 0.055

FBXO33 (UniProt Q7Z6M2)
inactive: epoxomicin -0.081 | rosiglitazone -0.256

FNBP1L (UniProt Q5T0N5)
inactive: volasertib 0.062 | [1] -0.168 | [8] -0.133 | [2] -0.032 | [3] -0.182 | rosiglitazone -0.17 | [4] 0.051 | [5] 0.04 | saracatinib 0.091 | sotrastaurin -0.011 | alvocidib -0.009 | Tubastatin A 0.235 | [9] 0.022 | defactinib -0.129 | [6] -0.009 | [7] 0.135

FNBP1 (UniProt Q96RU3)
inactive: [4] 0.01 | saracatinib 0.027 | Tubastatin A 0.073 | [6] -0.007

FGFR1OP2 isoform 2 (UniProt Q9NVK5)
inactive: volasertib 0.086 | alvocidib -0.269

FANCL isoform 2 (UniProt Q9NW38)
inactive: [3] 0.096 | alvocidib -0.144 | defactinib -0.258 | [7] -0.03

FGL2 (UniProt Q14314)
inactive: [8] 0.006 | [9] 0.087

FIG4 (UniProt Q92562)
inactive: volasertib -0.303 | [8] -0.046 | [9] 0.05

FBF1 isoform 6 (UniProt Q8TES7)
inactive: [1] -0.016 | [4] -0.025 | saracatinib 0.114 | [6] 0.135

FHAD1 isoform 3 (UniProt B1AJZ9)
inactive: volasertib -0.126 | [2] -0.043 | [3] -0.082 | rosiglitazone -0.136 | [4] 0.505 | [5] -0.065 | saracatinib 0.305 | alvocidib 0.21 | Tubastatin A -0.12 | defactinib 0.086 | [6] 0.073 | [7] 0.229

FAM83G (UniProt A6ND36)
inactive: epoxomicin -0.093 | [3] 0.002 | [4] 0.012 | saracatinib -0.12 | Tubastatin A 0.064 | defactinib -0.015 | [6] -0.129 | [7] 0.033

FBRS (UniProt J3KNZ9)
inactive: volasertib -0.39 | [1] -0.046 | epoxomicin 0.196 | [2] 0.173 | [3] 0.159 | [5] -0.044 | sotrastaurin -0.118 | alvocidib 0.226 | defactinib -0.305 | [7] 0.035

FMNL1 isoform 3 (UniProt O95466)
inactive: epoxomicin -0.128 | rosiglitazone -0.284 | sotrastaurin -0.443

FAM83A (UniProt Q86UY5)
inactive: volasertib 0.101 | [1] -0.019 | epoxomicin 0.063 | [8] -0.081 | [2] -0.041 | [3] 0.166 | [5] -0.154 | sotrastaurin -0.128 | Tubastatin A 0.155 | [9] -0.117 | defactinib 0.069 | [7] -0.128

FLCN (UniProt Q8NFG4)
inactive: [1] 0.069 | epoxomicin -0.031 | [8] -0.082 | [2] 0.076 | [3] 0.033 | [4] 0.021 | [5] 0.115 | saracatinib -0.133 | sotrastaurin -0.032 | alvocidib -0.081 | Tubastatin A 0.074 | [9] -0.035 | defactinib -0.022 | [6] 0.084 | [7] 0.081

FAM98C (UniProt Q17RN3)
inactive: [2] 0.091 | [5] -0.015 | alvocidib -0.103

FARP2 (UniProt O94887)
inactive: volasertib -0.487 | [3] -0.136 | [4] 0.203 | saracatinib -0.019 | alvocidib 0.196 | Tubastatin A -0.004 | defactinib 0.165 | [6] 0.015 | [7] -0.023

FBXO44 (UniProt Q9H4M3)
inactive: [1] -0.182 | rosiglitazone 0.044 | sotrastaurin -0.086 | alvocidib -0.034

FBXW11 (UniProt Q9UKB1)
inactive: volasertib 0.103 | [8] -0.003 | [2] -0.029 | [3] -0.075 | [4] 0.072 | [5] -0.094 | saracatinib 0.153 | alvocidib 0.156 | Tubastatin A 0.012 | [9] -0.073 | defactinib 0.147 | [6] 0.008 | [7] -0.014

FGF17 (UniProt O60258)
inactive: [2] 1.55 | [5] 0.237

FAM219B (UniProt Q5XKK7)
inactive: volasertib 0.135 | [2] 0.064 | [5] -0.018 | sotrastaurin -0.087

FMR1NB (UniProt Q8N0W7)
inactive: epoxomicin 0.203

FNIP1 (UniProt Q8TF40)
inactive: volasertib -0.016 | epoxomicin -0.064 | [8] -0.134 | [2] -0.226 | rosiglitazone -0.028 | [4] -0.16 | [5] 0.142 | saracatinib -0.07 | alvocidib 0.104 | Tubastatin A 0.005 | [9] 0.034 | [6] 0.071

FBXO2 (UniProt Q9UK22)
inactive: [2] -0.155 | [5] 0.05

FBXO11 isoform 5 (UniProt Q86XK2)
inactive: volasertib 0.324 | epoxomicin 0.098 | [8] 0.059 | sotrastaurin -0.017 | Tubastatin A 0.036 | [9] -0.089

FAM234B (UniProt A2RU67)
inactive: volasertib 0.032 | [8] 0.077 | [3] -0.141 | rosiglitazone -0.18 | sotrastaurin 0.02 | alvocidib -0.215 | Tubastatin A 0.316 | [9] 0.08 | defactinib -0.106 | [7] -0.038

FGG (UniProt P02679)
inactive: volasertib -0.042 | [2] 0.035 | [5] 0.137

FGGY isoform 3 (UniProt Q96C11)
inactive: volasertib 0.081 | epoxomicin -0.021 | [8] -0.044 | [2] 0.042 | [3] 0.095 | rosiglitazone 0.12 | [4] 0.027 | [5] -0.006 | saracatinib -0.15 | alvocidib 0.141 | Tubastatin A 0.011 | [9] 0.002 | defactinib -0.026 | [6] -0.168 | [7] -0.017

FGFR1OP2 (UniProt Q9NVK5)
inactive: [1] -0.025 | epoxomicin 0.067 | [8] 0 | [2] -0.047 | [3] 0.079 | rosiglitazone 0.075 | [4] -0.001 | [5] 0.063 | saracatinib 0.029 | alvocidib -0.019 | Tubastatin A 0.011 | [9] -0.02 | defactinib -0.127 | [6] 0.002 | [7] -0.041

FHL1 isoform 4 (UniProt Q13642)
inactive: volasertib 0.035 | [1] -0.373 | epoxomicin -0.236 | [8] -0.021 | [3] -0.143 | rosiglitazone 0.15 | [4] -0.013 | saracatinib -0.185 | sotrastaurin 0.093 | alvocidib 0.033 | Tubastatin A 0.01 | [9] -0.023 | defactinib 0.101 | [6] -0.181 | [7] 0.119

FBXL4 (UniProt Q9UKA2)
inactive: epoxomicin 0.373 | [2] 0.696 | [3] 0.344 | [4] 0.135 | [5] 0.339 | saracatinib 0.402 | sotrastaurin -0.065 | defactinib 0.005 | [6] -0.046 | [7] -0.09

FAT1 (UniProt Q14517)
inactive: volasertib 0.009 | [1] -0.048 | epoxomicin -0.05 | [2] -0.018 | [3] 0.07 | [4] -0.11 | [5] 0.082 | saracatinib -0.085 | sotrastaurin -0.072 | Tubastatin A -0.031 | [9] -0.041 | defactinib -0.05 | [6] -0.094 | [7] -0.087

FBXW2 (UniProt Q9UKT8)
inactive: volasertib -0.19 | epoxomicin 0.081 | [8] 0.097 | [3] -0.047 | rosiglitazone -0.056 | [4] 0.247 | saracatinib -0.281 | sotrastaurin 0.047 | alvocidib -0.067 | Tubastatin A 0.001 | [9] 0.021 | defactinib -0.084 | [6] 0.111 | [7] 0.128

Quoted from the listing (8 entries):
FAM83A (UniProt Q86UY5)
inactive: volasertib 0.101 | [1] -0.019 | epoxomicin 0.063 | [8] -0.081 | [2] -0.041 | [3] 0.166 | [5] -0.154 | sotrastaurin -0.128 | Tubastatin A 0.155 | [9] -0.117 | defactinib 0.069 | [7] -0.128

FLCN (UniProt Q8NFG4)
inactive: [1] 0.069 | epoxomicin -0.031 | [8] -0.082 | [2] 0.076 | [3] 0.033 | [4] 0.021 | [5] 0.115 | saracatinib -0.133 | sotrastaurin -0.032 | alvocidib -0.081 | Tubastatin A 0.074 | [9] -0.035 | defactinib -0.022 | [6] 0.084 | [7] 0.081

FAM98C (UniProt Q17RN3)
inactive: [2] 0.091 | [5] -0.015 | alvocidib -0.103

FARP2 (UniProt O94887)
inactive: volasertib -0.487 | [3] -0.136 | [4] 0.203 | saracatinib -0.019 | alvocidib 0.196 | Tubastatin A -0.004 | defactinib 0.165 | [6] 0.015 | [7] -0.023

FBXO44 (UniProt Q9H4M3)
inactive: [1] -0.182 | rosiglitazone 0.044 | sotrastaurin -0.086 | alvocidib -0.034

FBXW11 (UniProt Q9UKB1)
inactive: volasertib 0.103 | [8] -0.003 | [2] -0.029 | [3] -0.075 | [4] 0.072 | [5] -0.094 | saracatinib 0.153 | alvocidib 0.156 | Tubastatin A 0.012 | [9] -0.073 | defactinib 0.147 | [6] 0.008 | [7] -0.014

FGF17 (UniProt O60258)
inactive: [2] 1.55 | [5] 0.237

FAM219B (UniProt Q5XKK7)
inactive: volasertib 0.135 | [2] 0.064 | [5] -0.018 | sotrastaurin -0.087

Going on with the list.

FERMT2 isoform 3 (UniProt Q96AC1)
inactive: volasertib -0.04 | [1] -0.006 | epoxomicin -0.076 | [8] 0.159 | [2] 0.337 | rosiglitazone -0.106 | [4] -0.033 | [5] -0.001 | saracatinib -0.032 | sotrastaurin 0.021 | alvocidib -0.027 | Tubastatin A 0.062 | [9] 0.119 | [6] 0.067
